PubChem BioAssay AID720703 | Peter MacCallum Cancer Centre – 2013
In all, the deposit lists 714 reagents; below is an unselected part. In the full data, 50 (7%) are marked active. 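Chosen pools sit at both extremes, so both low and high scores count as candidates; some pools appear more than once.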 Some reagents were tested in more than one well and are listed for each.

- Screen: 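Which kinases alter ERK activation once AT1R is stimulated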 (primary screen)
- System: immortalised, SV40-transformed mammary epithelial cells from human, with stable expression of tagged AT1R
- Reagents: siRNA pool against human genes, 40 nM siRNA pool per well
- Time to read-out: 72 h from transfection to lysis and read-out
- Challenge: angiotensin II stimulation (dose and duration not given); EGFR inhibitor AG1478 also listed
- Read-out: 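ERK1/2 phosphorylation corrected for confluency, given as a robust z-score, mean over two replicate plates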
- Reading the numbers: phospho-ERK z-score: higher = more ERK phosphorylation after angiotensin II, relative to plate
- Call rule: 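Pools were ordered by robust z-score and 50 top-ranked pools, whether they raised or lowered the signal, were chosen for secondary testing; no numeric threshold was reported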
- Calls: active = picked for secondary screen; inactive = not picked

no.	target	phospho-ERK z-score, replicate mean	activity call
1	MAPK12 (GeneID 6300)	1.34	inactive
2	MYLK3 (GeneID 91807)	0.32	inactive
3	FXN (GeneID 2395)	-0.8	inactive
4	HASPIN (GeneID 83903)	1.56	inactive
5	CDC7 (GeneID 8317)	-0.3	inactive
6	GCK (GeneID 2645)	0.11	inactive
7	PACSIN1 (GeneID 29993)	0.66	inactive
8	PRKCG (GeneID 5582)	1.39	inactive
9	IRAK1 (GeneID 3654)	0.9	inactive
10	TSSK4 (GeneID 283629)	1.32	inactive
11	DGKB (GeneID 1607)	0.08	inactive
12	STK25 (GeneID 10494)	-1.05	inactive
13	PFKL (GeneID 5211)	0.52	inactive
14	AK7 (GeneID 122481)	0.77	inactive
15	KHK (GeneID 3795)	1.17	inactive
16	STK4 (GeneID 6789)	-0.39	inactive
17	PAK2 (GeneID 5062)	-0.18	inactive
18	JAK3 (GeneID 3718)	-1.07	inactive
19	PRPS1 (GeneID 5631)	0.05	inactive
20	EXOSC10 (GeneID 5394)	0.01	inactive
21	CDC42BPG (GeneID 55561)	-0.52	inactive
22	PIK3C2B (GeneID 5287)	1.97	inactive
23	KSR1 (GeneID 8844)	-0.22	inactive
24	AK3 (GeneID 50808)	-0.81	inactive
25	VRK2 (GeneID 7444)	0.78	inactive
26	PDGFRA (GeneID 5156)	0.66	inactive
27	TTK (GeneID 7272)	1.69	inactive
28	GUCY2F (GeneID 2986)	-0.38	inactive
29	PIP4K2B (GeneID 8396)	1.87	inactive
30	DMPK (GeneID 1760)	-0.05	inactive
31	STK40 (GeneID 83931)	-1.15	inactive
32	STK40 (GeneID 83931)	0.38	inactive
33	IGF1R (GeneID 3480)	-0.48	inactive
34	STRADB (GeneID 55437)	-0.12	inactive
35	NEK10 (GeneID 152110)	-1.21	inactive
36	BMPR1B (GeneID 658)	-1.19	inactive
37	DYRK1B (GeneID 9149)	-0.18	inactive
38	NEK5 (GeneID 341676)	-0.68	inactive
39	MAP2K7 (GeneID 5609)	-0.1	inactive
40	BRD3 (GeneID 8019)	0.12	inactive
41	CPNE3 (GeneID 8895)	0.43	inactive
42	MAP3K19 (GeneID 80122)	-0.03	inactive
43	CAMKK1 (GeneID 84254)	-0.77	inactive
44	CAMKK1 (GeneID 84254)	0.62	inactive
45	STK32B (GeneID 55351)	-0.69	inactive
46	MAK (GeneID 4117)	-0.82	inactive
47	FES (GeneID 2242)	3.41	active
48	LMBR1 (GeneID 64327)	0.09	inactive
49	FRK (GeneID 2444)	4.58	active
50	FCSK (GeneID 197258)	0.38	inactive
51	PIP5K1B (GeneID 8395)	2.56	active
52	PTK2B (GeneID 2185)	0.38	inactive
53	NRBP2 (GeneID 340371)	0.55	inactive
54	CALM1 (GeneID 801)	4.05	active
55	NEK8 (GeneID 284086)	1.76	inactive
56	PI4K2A (GeneID 55361)	0.26	inactive
57	HK1 (GeneID 3098)	0.24	inactive
58	RYK (GeneID 6259)	-0.72	inactive
59	BTK (GeneID 695)	0.26	inactive
60	NTRK3 (GeneID 4916)	1.24	inactive
61	EPHA6 (GeneID 285220)	-0.76	inactive
62	ERBB2 (GeneID 2064)	-1.16	active
63	CKMT1B (GeneID 1159)	-0.36	inactive
64	RNASEL (GeneID 6041)	-0.82	inactive
65	DLG2 (GeneID 1740)	0.36	inactive
66	FN3KRP (GeneID 79672)	4.65	active
67	NUAK1 (GeneID 9891)	-0.73	inactive
68	SIK1 (GeneID 150094)	-0.03	inactive
69	PASK (GeneID 23178)	-0.07	inactive
70	PGK1 (GeneID 5230)	-0.72	inactive
71	VRK3 (GeneID 51231)	-0.22	inactive
72	TESK1 (GeneID 7016)	3.78	inactive
73	MAP2K5 (GeneID 5607)	2	inactive
74	MAPK6 (GeneID 5597)	0.86	inactive
75	ERN1 (GeneID 2081)	-0.86	inactive

Looked up above.
Value of GCK (GeneID 2645) under “phospho-ERK z-score, replicate mean”: 0.11
Under “phospho-ERK z-score, replicate mean”, BTK (GeneID 695) reads 0.26
Entry for HASPIN (GeneID 83903) in “activity call”: inactive
For “phospho-ERK z-score, replicate mean”, VRK3 (GeneID 51231) shows -0.22
